# PubChem BioAssay AID504793 – Drosophila RNAi Screening Center, 2011
# Purpose: 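Genes required for cells to halt at G2/M after double-strand DNA breaks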 (primary screen)
# Cell system: Drosophila S2R+ cells
# Reagents: long dsRNA against Drosophila genes, about 0.25 µg dsRNA per well
# Duration: 4 days of dsRNA, then 4 hours of drug before read-out
# Treatment: doxorubicin 0.5 µM for 4 hours to cause double-strand breaks, in cells also given a low, harmless dose of dsRNA against nbs to sensitise the assay
# Measurement: 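Per-well count of mitotic cells stained for phospho-histone H3 after doxorubicin exposure, used as mitotic index; counts are raw and not normalised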
# Scale: mitotic cells: higher = more cells in mitosis, weaker G2 arrest
# Call rule: 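Genes are called active only when high mitotic counts were reproduced with independent dsRNAs and mitosis was checked for delay without damage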
# Calls: active = confirmed in follow-up tests; inactive = not confirmed
# The deposit covers about 23,000 reagents; this is a random part of those with a known target gene and a result. Over the whole deposit, 62 (0.27%) got an active call. 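Calls come from follow-up tests whose scores are not deposited, so confirmed genes may have low counts here; counts are not normalised per plate.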 Raw values are not corrected between plates. A plus sign joins genes that one reagent is predicted to hit. No sequences are given here.
gene,PubChem SID,"mitotic cells, replicate 1","mitotic cells, replicate 2",Outcome
RpL27,SID104195430,,,inactive
RpL27,SID104204434,11,,inactive
ksh,SID104199346,46,,inactive
ksh,SID104206691,4,,inactive
RpL36A,SID104182847,8,,inactive
RpL36A,SID104205919,6,,inactive
CG7465,SID104188384,8,,inactive
CG7465,SID104201823,10,,inactive
CG7465,SID104202953,5,,inactive
Or2a,SID104198482,11,,inactive
CG14075,SID104189872,7,,inactive
CG14511,SID104194655,9,,inactive
CG14511,SID104205118,6,,inactive
CG34125,SID104180642,7,,inactive
ppk11,SID104182529,7,,inactive
P5cr,SID104196574,18,,inactive
thoc5,SID104184119,7,,inactive
mon2,SID104182904,2,,inactive
mRpL38,SID104199526,4,,inactive
mRpL38,SID104207618,7,,inactive
ATPsynE,SID104195268,11,,inactive
ATPsynE,SID104208647,1,,inactive
CG14957,SID104188208,7,,inactive
CG31710,SID104180881,3,,inactive
CG31710,SID104202222,7,,inactive
CG31710,SID104204417,4,,inactive
His4r,SID104196495,11,,inactive
His4r,SID104206113,5,,inactive
Alp9,SID104190278,6,,inactive
kermit,SID104185866,7,,inactive
kermit,SID104204418,8,,inactive
CG15482,SID104182284,3,,inactive
Osi7,SID104191968,13,,inactive
Osi7,SID104205690,3,,inactive
Pvf1,SID104199816,3,,inactive
Isha,SID104184248,3,,inactive
Ddc,SID104183106,3,,inactive
ppk13,SID104182174,8,,inactive
CG34423 + Mthfs,SID104183880,7,,inactive
CG42686 (retired record),SID104195040,10,,inactive
CG42686 (retired record),SID104202352,16,,inactive
CG42686 (retired record),SID104204342,9,,inactive
CG42686 (retired record),SID104207889,8,,inactive
CG34266,SID104188115,4,,inactive
plu,SID104187457,1,,inactive
uzip,SID104184514,7,,inactive
uzip,SID104208589,13,,inactive
Rhau,SID104182992,3,,inactive
Rhau,SID104205586,9,,inactive
CG34325,SID104199594,9,,inactive
CG34325,SID104199992,5,,inactive
CG8042,SID104189468,2,,inactive
CG8042,SID104203355,8,,inactive
CG12672,SID104199274,17,,inactive
CG12672,SID104203119,1,,inactive
TotX,SID104201742,8,,inactive
TotX,SID104207652,7,,inactive
rdo,SID104182244,2,,inactive
rdo,SID104204117,3,,inactive
tzn,SID104191547,4,,inactive
rg,SID104197518,4,,inactive
rg,SID104197841,13,,inactive
rg,SID104207688,3,,inactive
Den1,SID104186987,5,,inactive
CG31077,SID104193597,7,,inactive
CG31077,SID104202943,2,,inactive
CG17698,SID104191699,6,,inactive
E(spl)m5-HLH,SID104196487,12,,inactive
E(spl)m5-HLH,SID104206776,10,,inactive
CG13065,SID104189740,2,,inactive
CG13065,SID104206549,5,,inactive
CycG,SID104194116,3,,inactive
CycG,SID104202702,10,,inactive
Peritrophin-15a,SID104182428,4,,inactive
Peritrophin-15a,SID104207715,7,,inactive
CG32079,SID104202044,7,,inactive
CG7985,SID104193920,10,,inactive
CG12420,SID104194306,9,,inactive
CG14785,SID104198396,7,,inactive
CG2202,SID104199633,8,,inactive
CG2202,SID104202743,3,,inactive
CG17806,SID104195068,6,,inactive
cer,SID104185784,6,,inactive
CG13837,SID104194479,6,,inactive
CG11555,SID104203062,4,,inactive
Pisd,SID104195727,6,,inactive
CG32369,SID104189834,4,,inactive
CG32369,SID104190626,4,,inactive
CG32369,SID104202982,4,,inactive
ath,SID104182580,7,,inactive
Ir7e,SID104197803,8,,inactive
Nlg4,SID104194901,10,,inactive
Nlg4,SID104195492,9,,inactive
Nlg4,SID104201769,11,,inactive
Nlg4,SID104207329,7,,inactive
Nlg4,SID104208305,11,,inactive
Nlg4,SID104208566,1,,inactive
Rala,SID104198495,8,,inactive
Rala,SID104206410,6,,inactive
CG10597,SID104199149,6,10,inactive
CG10597,SID104203647,5,,inactive
CG7101,SID104199815,11,,inactive
CG7101,SID104202204,3,,inactive
CG15040,SID104199408,18,,inactive
CG15040,SID104201213,8,,inactive
CG15040,SID104208010,4,,inactive
CG42676,SID104188184,1,,inactive
CG42676,SID104202758,6,,inactive
Tsen34 + Trl,SID104189806,13,,inactive
HHEX,SID104195978,11,,inactive
HHEX,SID104207579,7,,inactive
